The target in the assay is Seipin-V5, transfected into HEK293T cells (UniProt Q9Z2E9). Nature of the assay: SEC.

Chains of the proteins cited; added tags and fusions are not shown.
UniProt Q9Z2E9, whole entry: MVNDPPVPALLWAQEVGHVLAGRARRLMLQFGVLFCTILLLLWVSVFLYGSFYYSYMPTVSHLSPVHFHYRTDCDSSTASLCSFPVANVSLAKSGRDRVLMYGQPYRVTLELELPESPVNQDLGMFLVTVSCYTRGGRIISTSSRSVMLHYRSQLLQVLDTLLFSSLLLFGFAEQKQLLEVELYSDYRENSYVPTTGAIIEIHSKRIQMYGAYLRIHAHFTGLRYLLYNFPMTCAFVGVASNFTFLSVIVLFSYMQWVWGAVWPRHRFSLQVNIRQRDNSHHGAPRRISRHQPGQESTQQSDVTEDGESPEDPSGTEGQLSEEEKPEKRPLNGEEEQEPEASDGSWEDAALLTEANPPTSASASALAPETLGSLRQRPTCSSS

These are yes or no findings as the source states them, for the method shown. Some binding calls cover weakened binding; strength is not graded here.

On to “Seipin-V5, transfected into HEK293T cells (from UniProt Q9Z2E9 1-383)”, for which the binding entry is listed as “binds”.

The values are drawn from publication doi:10.1101/2024.07.25.605195 (bioRxiv, 2024).
